Measured values reported in US7078203.
No constants are given. Whether binding was seen depends on the method and setting. Some entries that bind do so weakly or less than the wild type. Tags and fused reporters may be left off the sequences shown.

The chains behind the UniProt entries cited, without tags or fusion partners. Where a name states a change or a piece, a line headed by the entry shows the natural chain unless it says otherwise.
UniProt P04386: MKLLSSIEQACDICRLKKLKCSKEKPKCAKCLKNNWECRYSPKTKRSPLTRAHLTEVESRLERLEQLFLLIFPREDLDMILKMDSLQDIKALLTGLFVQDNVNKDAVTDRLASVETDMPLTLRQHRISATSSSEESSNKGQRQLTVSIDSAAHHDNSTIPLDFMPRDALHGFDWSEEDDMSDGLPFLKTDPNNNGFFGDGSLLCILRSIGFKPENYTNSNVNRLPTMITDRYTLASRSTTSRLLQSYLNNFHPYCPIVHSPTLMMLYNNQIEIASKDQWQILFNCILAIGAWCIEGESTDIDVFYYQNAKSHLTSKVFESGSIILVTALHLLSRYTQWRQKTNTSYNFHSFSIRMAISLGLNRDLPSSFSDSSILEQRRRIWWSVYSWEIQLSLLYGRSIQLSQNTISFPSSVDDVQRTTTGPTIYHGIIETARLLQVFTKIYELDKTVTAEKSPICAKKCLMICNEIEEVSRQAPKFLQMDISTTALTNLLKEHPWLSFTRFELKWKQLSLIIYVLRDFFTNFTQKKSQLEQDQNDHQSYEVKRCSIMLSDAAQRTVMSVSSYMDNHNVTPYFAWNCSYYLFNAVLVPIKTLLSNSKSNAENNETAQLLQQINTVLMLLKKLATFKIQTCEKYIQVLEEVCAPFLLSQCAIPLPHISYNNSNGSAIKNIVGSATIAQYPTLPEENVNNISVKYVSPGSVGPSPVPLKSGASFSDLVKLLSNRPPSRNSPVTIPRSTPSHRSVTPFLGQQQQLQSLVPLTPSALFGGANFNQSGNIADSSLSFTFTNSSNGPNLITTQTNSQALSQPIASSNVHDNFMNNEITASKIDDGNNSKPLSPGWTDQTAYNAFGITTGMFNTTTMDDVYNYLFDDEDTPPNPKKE
UniProt Q12018: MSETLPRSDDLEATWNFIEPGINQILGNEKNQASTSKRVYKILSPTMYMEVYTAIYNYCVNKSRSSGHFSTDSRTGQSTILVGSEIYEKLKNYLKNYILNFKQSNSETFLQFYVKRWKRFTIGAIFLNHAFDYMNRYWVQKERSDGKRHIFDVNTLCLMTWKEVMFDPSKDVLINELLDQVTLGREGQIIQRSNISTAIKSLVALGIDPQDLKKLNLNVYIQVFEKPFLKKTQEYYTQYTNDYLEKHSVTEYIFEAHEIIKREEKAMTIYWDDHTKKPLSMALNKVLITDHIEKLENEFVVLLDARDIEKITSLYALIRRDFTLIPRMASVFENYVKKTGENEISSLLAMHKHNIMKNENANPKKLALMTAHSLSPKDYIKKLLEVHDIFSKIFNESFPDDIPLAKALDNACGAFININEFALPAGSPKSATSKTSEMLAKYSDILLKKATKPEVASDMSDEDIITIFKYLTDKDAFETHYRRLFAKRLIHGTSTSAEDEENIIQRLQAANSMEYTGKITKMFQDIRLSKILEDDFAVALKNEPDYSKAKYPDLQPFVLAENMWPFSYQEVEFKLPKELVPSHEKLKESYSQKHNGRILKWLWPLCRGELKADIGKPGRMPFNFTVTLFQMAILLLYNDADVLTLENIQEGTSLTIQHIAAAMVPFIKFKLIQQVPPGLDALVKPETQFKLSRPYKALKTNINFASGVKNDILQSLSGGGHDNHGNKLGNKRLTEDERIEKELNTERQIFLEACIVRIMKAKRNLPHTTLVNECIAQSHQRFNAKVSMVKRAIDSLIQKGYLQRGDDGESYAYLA
UniProt P53202: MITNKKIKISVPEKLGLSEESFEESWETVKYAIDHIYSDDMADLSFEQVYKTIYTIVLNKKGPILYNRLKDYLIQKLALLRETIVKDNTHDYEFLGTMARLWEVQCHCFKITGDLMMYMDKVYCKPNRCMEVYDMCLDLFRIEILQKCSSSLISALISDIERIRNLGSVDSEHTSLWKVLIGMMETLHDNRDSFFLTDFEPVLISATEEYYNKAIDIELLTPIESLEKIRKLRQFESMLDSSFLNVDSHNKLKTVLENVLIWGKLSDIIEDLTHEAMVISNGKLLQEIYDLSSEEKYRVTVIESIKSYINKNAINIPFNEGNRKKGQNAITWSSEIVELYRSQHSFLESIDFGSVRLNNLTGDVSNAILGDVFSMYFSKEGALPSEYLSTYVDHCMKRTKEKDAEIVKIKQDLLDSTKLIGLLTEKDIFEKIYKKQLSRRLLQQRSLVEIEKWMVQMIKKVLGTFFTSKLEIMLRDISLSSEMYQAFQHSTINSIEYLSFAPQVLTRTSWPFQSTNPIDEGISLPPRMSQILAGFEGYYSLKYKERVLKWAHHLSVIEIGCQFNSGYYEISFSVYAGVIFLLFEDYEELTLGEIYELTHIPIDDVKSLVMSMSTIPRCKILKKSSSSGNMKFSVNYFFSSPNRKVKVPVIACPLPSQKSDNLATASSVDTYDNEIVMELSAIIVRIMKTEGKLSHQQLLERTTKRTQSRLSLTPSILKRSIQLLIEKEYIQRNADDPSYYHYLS
UniProt P47050: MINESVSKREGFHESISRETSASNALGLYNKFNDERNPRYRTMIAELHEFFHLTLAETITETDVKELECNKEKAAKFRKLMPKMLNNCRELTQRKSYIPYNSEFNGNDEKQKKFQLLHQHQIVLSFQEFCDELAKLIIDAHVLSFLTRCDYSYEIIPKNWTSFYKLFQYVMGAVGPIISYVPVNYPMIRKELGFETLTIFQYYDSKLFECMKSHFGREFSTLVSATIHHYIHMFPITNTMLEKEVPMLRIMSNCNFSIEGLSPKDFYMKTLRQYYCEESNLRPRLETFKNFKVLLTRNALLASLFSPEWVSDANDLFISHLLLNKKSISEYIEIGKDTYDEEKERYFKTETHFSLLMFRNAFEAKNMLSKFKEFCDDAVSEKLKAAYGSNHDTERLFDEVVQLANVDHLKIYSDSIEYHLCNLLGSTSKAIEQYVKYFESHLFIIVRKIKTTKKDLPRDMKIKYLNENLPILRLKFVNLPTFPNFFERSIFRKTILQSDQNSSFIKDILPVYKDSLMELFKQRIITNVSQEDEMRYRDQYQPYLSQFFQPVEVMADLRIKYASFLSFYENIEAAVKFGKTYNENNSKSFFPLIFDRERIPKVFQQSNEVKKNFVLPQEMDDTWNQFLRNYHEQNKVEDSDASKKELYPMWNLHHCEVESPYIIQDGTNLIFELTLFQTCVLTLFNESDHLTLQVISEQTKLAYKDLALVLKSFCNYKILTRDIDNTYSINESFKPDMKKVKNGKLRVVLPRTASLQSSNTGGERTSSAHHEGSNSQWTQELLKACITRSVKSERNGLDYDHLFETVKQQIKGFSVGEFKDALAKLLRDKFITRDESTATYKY

Assays:
[1] = target: T1, CDC53 fused to the Gal4 DNA binding domain (pGBT8-CDC53) (yeast; S. cerevisiae) (UniProt P04386+Q12018); experiment: yeast two-hybrid in HF7c cells
[2] = target: T2, CUL-B (ORF YGR003w) fused to the Gal4 DNA binding domain (yeast; S. cerevisiae) (UniProt P04386+P53202); experiment: yeast two-hybrid in HF7c cells
[3] = target: T3, CUL-C (ORF YJL047c) fused to the Gal4 DNA binding domain (yeast; S. cerevisiae) (UniProt P04386+P47050); experiment: yeast two-hybrid in HF7c cells
[4] = target: T1, CDC53 fused to the Gal4 DNA binding domain (pGBT8-CDC53) (yeast; S. cerevisiae); experiment: yeast two-hybrid, activation of the histidine reporter gene
[5] = target: T2, CUL-B (ORF YGR003w) fused to the Gal4 DNA binding domain (yeast; S. cerevisiae); experiment: as above
[6] = target: T3, CUL-C (ORF YJL047c) fused to the Gal4 DNA binding domain (yeast; S. cerevisiae); experiment: as above

binding [1]: binds
binding [2]: binds
binding [3]: binds
binding [4]: binds
binding [5]: binds
binding [6]: binds
B1: ScROC1 fused to the GAL4 activation domain (pGAD-ScROC1) (protein, S. cerevisiae, UniProt Q08273 1-121, looked up, not shown: large carriers)
chain: MSNEVDRMDVDEDESQNIAQSSNQSAPVETKKKRFEIKKWTAVAFWSWDIAVDNCAICRNHIMEPCIECQPKAMTDTDNECVAAWGVCNHAFHLHCINKWIKTRDACPLDNQPWQLARCGR
